The results in this text go back to PubChem BioAssay AID1458 (National Center for Advancing Translational Sciences (NCATS), 2008).

SMILES strings stand for the structures. Screen size: about 210,000 compounds; about 5,900 (2.8%) were called active. Another 5% or so got no clear call; they are omitted. Calls come from the whole dose curve; as a rule, active = well fitted activation curve with a large enough effect; inconclusive = small, poorly fitted or top-dose-only effect; inactive = no such curve, though single readings can be large or run the other way. This is a selection; strong and weak results do not stand in their true shares. The source gives no active or inactive call for entries shown without one.
Potency is the fitted concentration of half-maximal effect.

A short description of this test: qHTS Assay for Enhancers of SMN2 Splice Variant Expression. For activity change, positive = activation: % of control where 0% means no effect. Note: nearly all actives have a fitted effect of over 55% in size. As to conditions: HEK293 SMN2-luciferase splicing reporter, luminescence, 30-36 h; activity change, positive = activation: at 46.1 µM (top of the series) unless noted. An excerpt:
NIH Chemical Genomics Center [NCGC] NIH Molecular Libraries Probe Production centers Network [MLPCN] MLPCN Grant: R03 MH084179-01 Assay Submitter (PI): Elliot Androphy NCGC Assay Overview: Spinal muscular atrophy (SMA) is caused by insufficient levels of the survival motor neuron protein SMN. The SMN locus on chromosome 5q13 contains two inverted copies of SMN called SMN1 and SMN2 which are 99% identical at the amino acid level. SMN1 is a fully functional protein and SMN2 skips exon 7 90% of the time. Skipping of exon 7 produces non-functional protein product. 10% of the SMN2 protein includes exon 7 and is fully functional. In the SMA disease state, mutations in the SMN1 locus are the cause of the disease state. Because only 10% of SMN2 is of the fully functional form, it is not sufficient to overcome the deficiency produced by the loss of the SMN1 product. A therapy that either increase the amount of SMN2 product made or to increase the inclusion of exon 7 has been proposed for the treatment of SMA. We have designed an assay to identify small molecules that can increase the amount of functional SMN2 product by appending a luciferase reporter gene after the native SMN2 gene, such that inclusion of exon 7 in the expressed product places the luciferase sequence in frame, thus generating functional luciferase enzyme.
NCGC Assay Protocol Summary: This screen utilizes a luciferase reporter gene assay, combining the promoter and splicing based cassettes in tandem with the major portion of the native SMN2 cDNA, and then transfected into HEK293 cells. Compounds that increase luciferase signal presumably enhance expression of the functional SMN2 splice variant. Passaging media contained DMEM w/ glutamax (+phenol red) 10% FCS, 1x pen/strep, 200 ug/ml hygro, 1x sodium pyruvate. Assay media contained DMEM w/ glutamax (-phenol red) 10% FCS, 1x pen strep, 1x pyruvate Sequence, Parameter, Value, Description (1) Cells, […], 2000 cells/well, 1536 TC treated White solid bottom plate (2) Time, 10-12 hours, 37C 5% CO2 (3) Compound, 23 nl, MLSMR Library (4) Control Compound, 23 nL, Sodium butyrate st 4.5mM (final) conc (5) Time, 30-36 hours, 37C 5% CO2 (6) Reagent, 3 ul, One Glo (TM) from Promega (7) Time, 5-15 minutes, Room temp (8) Detector, Viewlux: luminescent read, 60 second integration, high speed 2x binning Keywords: Spinal muscular atrophy, SMA, SMN2, high throughput screening, MLSMR, MLPCN, NIH Roadmap, qHTS and NCGC
For `CCn1nnc(NC(=O)c2cc3ccccc3o2)n1`, the Potency is active: 31.6 µM. On to `CC1(C)CC2CC(C)(CN2S(=O)(=O)c2ccc(C(=O)Nc3cc(S(=O)(=O)N4CCOCC4)ccc3Cl)cc2)C1` (centres undefined), for which the activity change, positive = activation was -39.7%.

Turning to `CC1Cc2ccccc2C(=O)N1` (centres undefined), the activity change, positive = activation was 38.3%. With `CC1=C(C(=O)OC(C)C)C(C)NC(=O)N1` (centres undefined), the activity change, positive = activation came to 33.6%. Still for that read-out and setting: the same measure for `CN(C)C(CNC(=O)CCCOc1ccccc1)c1ccco1` (centres undefined): 44.5%. On to `CN(C)c1ccc(NC(=O)Nc2cccc(Cl)c2)cc1`, for which the Potency is active: 12.6 µM. For `O=C(NC1CCCC1)C(c1cccnc1)N(C(=O)c1csnn1)C1CC1` (centres undefined), the activity change, positive = activation amounted to 23.4%. Turning to `COC(=O)C1=C(C)NC(C)=C(C(=O)OC)C1c1ccc(N(C)C)cc1`, the activity change, positive = activation turned out to be 37.6%.

As for `O=CN1CCN(C(=O)c2ccc(-c3nc4ccccc4s3)s2)CC1`, the activity change, positive = activation was 46.3%. In the case of `COc1ccc(C(=O)Nc2nc3ccccc3[nH]2)cc1S(=O)(=O)N1CCCC1`, the “activity change, positive = activation” value was inactive: 18.5%.

`CCOc1ccc(C2C(C#N)=C(N)Oc3cc(C)n(Cc4ccco4)c(=O)c32)cc1OC` (centres undefined): the activity change, positive = activation is 53.9%.

On to `C/C(N)=C(/C#N)C(=O)CSc1nnc(-c2ccc3c(c2)OCO3)o1`, for which the Potency is active: 1.12 µM.

Regarding `NCC(O)COCCC12CC3CC(CC(C3)C1)C2` (centres undefined), the activity change, positive = activation stood at 33.2%. Consider `CCOC(=O)Cc1csc(SCC(=O)Nc2cc(Cl)ccc2Oc2ccccc2)n1`, for which the activity change, positive = activation stood at 29.2%. Same read-out and setting: next, `COc1cccc(NS(=O)(=O)c2ccc3[nH]cc(C(=O)NCCC(C)C)c(=O)c3c2)c1`: inactive: -51.5%; `COC(=O)C1=CN(C)C=C(C(=O)OC)C1c1ccsc1`: 37.6%.

For the compound `Brc1ccc(-c2nc3ccccc3s2)s1`, the Potency was active: 14.1 µM. Take `CCOC(=O)C1=C2N(C)c3ccccc3N2CCC1=O`: the activity change, positive = activation is 32.6%. Regarding `COc1ccc(C(=O)N2CCC(n3c(C)nc4cc(F)ccc43)CC2)cc1`, the “activity change, positive = activation” value was inactive: -57.3%.

For the compound `Oc1c(C=Nc2cccc3nsnc23)ccc2ccccc12`, the activity change, positive = activation came to 30.3%.

Consider `COc1ccc(S(=O)(=O)NCc2ccco2)cc1-c1nnc2c3ccccc3c(C)nn12`, for which the activity change, positive = activation was 44.3%. Consider `CCCOc1ccc(C(CC(=O)O)NC(=O)c2sc3ccccc3c2Cl)cc1` (centres undefined), for which the activity change, positive = activation is -43.2%. On to `O=C(CCCC(=O)N/N=C\c1ccccn1)N/N=C\c1ccccn1`, for which the activity change, positive = activation was -3.98%. For `O=C(Nc1ccc(-c2cn3ccsc3n2)cc1)c1ccc(F)c(S(=O)(=O)N2CCOCC2)c1`, the “activity change, positive = activation” value is inactive: -71.3%. The same measure, in the same setting: next, `CN=c1scc(-c2ccc([N+](=O)[O-])cc2)n1/N=C/c1ccco1`: 44%. In the case of `CCc1ccc(NC(=O)c2ccc(-c3ccccc3)s2)cc1`, the activity change, positive = activation is 36.7%. Consider `CCCCOc1ccc(Cc2n[nH]c(=S)n2N)cc1`, for which the activity change, positive = activation was -40.7%. Turning to `CCC(=O)c1ccc(OCC(O)CN2CCN(S(=O)(=O)N3CCCCC3)CC2)cc1` (centres undefined), the activity change, positive = activation is -33.8%. Still for that read-out and setting: next, `NC(=O)C1(N2CCCCC2)CCN(c2nc(-c3ccccc3)cs2)CC1`: -44.3%; `COc1ccc(NC(=O)c2cc(C)on2)cc1OC`: 41.5%.

With `Cc1ccnc2ccc(-c3nc4ccccc4o3)cc12`, the Potency was active: 17.8 µM. For `CCC(=O)NCCc1nc2cc(NC(=O)c3ccccc3OC)ccc2n1C`, the activity change, positive = activation came out at 97.4%. As for `Cc1nn(-c2ccccc2)c2sc(C(=O)N3CCOCC3)cc12`, the Potency was active: 11.2 µM. Take `CC(C)C(=O)Nc1cccc(C(=O)Nc2nnc(C(C)C)s2)c1`: the Potency was active: 11.2 µM. For `Nc1nc(NC(=O)CCCC(=O)O)nn1-c1ccccc1`, the activity change, positive = activation amounted to 36.6%. For `O=C(Nc1cccc(-c2cn3ccccc3n2)c1)c1cccs1`, the activity change, positive = activation is 44.5%. In the case of `O=C(NC(=S)Nc1ccc(N2CCCCC2)c(Cl)c1)c1ccc2c(c1)OCCO2`, the “activity change, positive = activation” value is inactive: -54%.

Take `CN(C)/C=C1\N=C(c2ccccc2)OC1=O`: the “activity change, positive = activation” value was inactive: 7.9%. Regarding `COCCOC(=O)c1[nH]c2c(c1C)C(=O)C(C(=O)OC)C(C)C2` (centres undefined), the Potency is active: 11.2 µM. As to `CCCC(=O)Nc1ccccc1-c1nnn(CC(=O)Nc2ccc(OCC)cc2)n1`, the “activity change, positive = activation” value was inactive: -44.8%. As to `CCc1nn(CC(=O)NC2CC2)c(=O)c2cc3ccccc3n12`, the activity change, positive = activation was found to be 50.2%.

`Cn1ncc(N=Cc2ccccc2)c1C(N)=O`: the activity change, positive = activation turned out to be 46.4%. Regarding `COc1ccc2[nH]c(C)c(CCNC(=S)Nc3ccccc3OC)c2c1`, the “activity change, positive = activation” value is inactive: -30.6%. As to `C=CCNC(=O)c1cc(-c2ccccc2O)on1`, the activity change, positive = activation amounted to 230%. Same read-out and setting: next, `CC(=O)NNc1ncnc2c1cnn2-c1ccc(C)cc1`: 37.6%.

Consider `COc1cccc(-c2nc3sc4c(c3c(=O)[nH]2)CCCCC4)c1`, for which the Potency is active: 0.891 µM. For `CCc1cc2c(Sc3nc4ccccc4s3)ncnc2s1`, the activity change, positive = activation was -59.8%.

`CCOc1cccc(C(=O)NC(=S)Nc2ccc3c(c2)OCCO3)c1`: the “activity change, positive = activation” value is inactive: 30.3%. Turning to `O=C1Nc2ncccc2OC1CCO` (centres undefined), the activity change, positive = activation is -32.9%. Turning to `CC/C(=N\NC(=O)c1c[nH]c2ccccc12)c1cccs1`, the Potency is active: 17.8 µM. For the compound `Cc1ccc(NC(=O)/C(=C/c2cccc(Br)c2)NC(=O)c2ccco2)cc1`, the activity change, positive = activation was 7.78%. `O=C(Nc1ccc(-c2nc3ccccc3o2)cc1)C1CCCO1` (centres undefined): the Potency was active: 7.94 µM.

Take `CC(NC(=O)c1ccco1)C(c1cccs1)N1CCN(c2ccccc2F)CC1` (centres undefined): the activity change, positive = activation is -76.7%. `O/N=C/c1ccc(OCc2ccccc2)c(Cl)c1`: the Potency is active: 11.2 µM.
